Measured values from patent US20040209310A1.
No constants are given. Whether binding was seen depends on the method and setting. In cells and extracts the contact can be indirect. Some entries that bind do so weakly or less than the wild type. For part of these data: Where a sequence is shown, tags or fusion partners need not be part of it.

B1: Ig-F spondin.1 (pCMVIg-F spondin.1, residues 1-807, full-length) (Fc fusion, not shown: a dimerising Fc or GST)
chain: FSDETLDKVPKSEGYCSRILRAQGTRREGYTEFSLRVEGDPDFYKPGTSYRVTLSAAPPSYFRGFTLIALRENREGDKEEDHAGTFQIIDEEETQFMSNCPVAVTESTPRRRTRIQVFWIAPPAGTGCVILKASIVQKRIIYFQDEGSLTKKLCEQDSTFDGVTDKPILDCCACGTAKYRLTFYGNWSEKTHPKDYPRRANHWSAIIGGSHSKNYVLWEYGGYASEGVKQVAELGSPVKMEEEIRQQSDEVLTVIKAKAQWPAWQPLNVRAAPSAEFSVDRTRHLMSFLTMMGPSPDWNVGLSAEDLCTKECGWVQKVVQDLIPWDAGTDSGVTYESPNKPTIPQEKIRPLTSLDHPQSPFYDPEGGSITQVARVVIERIARKGEQCNIVPDNVDDIVADLAPEEKDEDDTPETCIYSNWSPWSACSSSTCDKGKRMRQRMLKAQLDLSVPCPDTQDFQPCMGPGCSDEDGPTCTMSEWITWSPCSISCGMGMRSRERYVKQFPEDGSVCTLPTEETEKCTVNEECSPSSCLMTEWGEWDEYSATCGMGMKKRHRMIKMNPADGSMCKAETSQAEKRMMPECHTIPCLLSPWSEWSDCSVTCGKGMRTRQRMLKSLAELGDCNEDLEQVEKCMLPECPIDCELTEWSQWSECNKSCGKGHVIRTRMIQMEPQFGGAPCPETVQRKKCRIRKCLRNPSIQKLRWREARESRRSEQLKEESEGEQFPGCRMRPWTAWSECTKLCGGGIQERYMTVKKRFKSSQFTSCKDKKEIRACNVHPC
B2: myc-tagged full-length F-spondin (ligand, not shown: small tags and cut ends)
chain: FSDETLDKVPKSEGYCSRILRAQGTRREGYTEFSLRVEGDPDFYKPGTSYRVTLSAAPPSYFRGFTLIALRENREGDKEEDHAGTFQIIDEEETQFMSNCPVAVTESTPRRRTRIQVFWIAPPAGTGCVILKASIVQKRIIYFQDEGSLTKKLCEQDSTFDGVTDKPILDCCACGTAKYRLTFYGNWSEKTHPKDYPRRANHWSAIIGGSHSKNYVLWEYGGYASEGVKQVAELGSPVKMEEEIRQQSDEVLTVIKAKAQWPAWQPLNVRAAPSAEFSVDRTRHLMSFLTMMGPSPDWNVGLSAEDLCTKECGWVQKVVQDLIPWDAGTDSGVTYESPNKPTIPQEKIRPLTSLDHPQSPFYDPEGGSITQVARVVIERIARKGEQCNIVPDNVDDIVADLAPEEKDEDDTPETCIYSNWSPWSACSSSTCDKGKRMRQRMLKAQLDLSVPCPDTQDFQPCMGPGCSDEDGPTCTMSEWITWSPCSISCGMGMRSRERYVKQFPEDGSVCTLPTEETEKCTVNEECSPSSCLMTEWGEWDEYSATCGMGMKKRHRMIKMNPADGSMCKAETSQAEKRMMPECHTIPCLLSPWSEWSDCSVTCGKGMRTRQRMLKSLAELGDCNEDLEQVEKCMLPECPIDCELTEWSQWSECNKSCGKGHVIRTRMIQMEPQFGGAPCPETVQRKKCRIRKCLRNPSIQKLRWREARESRRSEQLKEESEGEQFPGCRMRPWTAWSECTKLCGGGIQERYMTVKKRFKSSQFTSCKDKKEIRACNVHPC
B3: Ig-F spondin.2 (pCMVIg-F spondin.2, residues 1-501) (Fc fusion, not shown: a dimerising Fc or GST)
chain: FSDETLDKVPKSEGYCSRILRAQGTRREGYTEFSLRVEGDPDFYKPGTSYRVTLSAAPPSYFRGFTLIALRENREGDKEEDHAGTFQIIDEEETQFMSNCPVAVTESTPRRRTRIQVFWIAPPAGTGCVILKASIVQKRIIYFQDEGSLTKKLCEQDSTFDGVTDKPILDCCACGTAKYRLTFYGNWSEKTHPKDYPRRANHWSAIIGGSHSKNYVLWEYGGYASEGVKQVAELGSPVKMEEEIRQQSDEVLTVIKAKAQWPAWQPLNVRAAPSAEFSVDRTRHLMSFLTMMGPSPDWNVGLSAEDLCTKECGWVQKVVQDLIPWDAGTDSGVTYESPNKPTIPQEKIRPLTSLDHPQSPFYDPEGGSITQVARVVIERIARKGEQCNIVPDNVDDIVADLAPEEKDEDDTPETCIYSNWSPWSACSSSTCDKGKRMRQRMLKAQLDLSVPCPDTQDFQPCMGPGCSDEDGPT
B4: Ig-F spondin.4 (pCMVIg-F spondin.4, residues 1-754) (Fc fusion, not shown: a dimerising Fc or GST)
chain: FSDETLDKVPKSEGYCSRILRAQGTRREGYTEFSLRVEGDPDFYKPGTSYRVTLSAAPPSYFRGFTLIALRENREGDKEEDHAGTFQIIDEEETQFMSNCPVAVTESTPRRRTRIQVFWIAPPAGTGCVILKASIVQKRIIYFQDEGSLTKKLCEQDSTFDGVTDKPILDCCACGTAKYRLTFYGNWSEKTHPKDYPRRANHWSAIIGGSHSKNYVLWEYGGYASEGVKQVAELGSPVKMEEEIRQQSDEVLTVIKAKAQWPAWQPLNVRAAPSAEFSVDRTRHLMSFLTMMGPSPDWNVGLSAEDLCTKECGWVQKVVQDLIPWDAGTDSGVTYESPNKPTIPQEKIRPLTSLDHPQSPFYDPEGGSITQVARVVIERIARKGEQCNIVPDNVDDIVADLAPEEKDEDDTPETCIYSNWSPWSACSSSTCDKGKRMRQRMLKAQLDLSVPCPDTQDFQPCMGPGCSDEDGPTCTMSEWITWSPCSISCGMGMRSRERYVKQFPEDGSVCTLPTEETEKCTVNEECSPSSCLMTEWGEWDEYSATCGMGMKKRHRMIKMNPADGSMCKAETSQAEKRMMPECHTIPCLLSPWSEWSDCSVTCGKGMRTRQRMLKSLAELGDCNEDLEQVEKCMLPECPIDCELTEWSQWSECNKSCGKGHVIRTRMIQMEPQFGGAPCPETVQRKKCRIRKCLRNPSIQKLRWREARESRRSEQLKEESEGEQFPG
B5: Ig-F spondin.6 (pCMVIg-F spondin.6, residues 1-442) (Fc fusion, not shown: a dimerising Fc or GST)
chain: FSDETLDKVPKSEGYCSRILRAQGTRREGYTEFSLRVEGDPDFYKPGTSYRVTLSAAPPSYFRGFTLIALRENREGDKEEDHAGTFQIIDEEETQFMSNCPVAVTESTPRRRTRIQVFWIAPPAGTGCVILKASIVQKRIIYFQDEGSLTKKLCEQDSTFDGVTDKPILDCCACGTAKYRLTFYGNWSEKTHPKDYPRRANHWSAIIGGSHSKNYVLWEYGGYASEGVKQVAELGSPVKMEEEIRQQSDEVLTVIKAKAQWPAWQPLNVRAAPSAEFSVDRTRHLMSFLTMMGPSPDWNVGLSAEDLCTKECGWVQKVVQDLIPWDAGTDSGVTYESPNKPTIPQEKIRPLTSLDHPQSPFYDPEGGSITQVARVVIERIARKGEQCNIVPDNVDDIVADLAPEEKDEDDTPET

Columns and labels:
[1] = biological target: recombinant full-length APP695 (pCMV-APP) (human) (UniProt P05067); test: pulldown from transfected COS cell lysate with immobilized full-length Ig-F spondin, immunoblot with C-terminal antibodies
[2] = biological target: recombinant full-length APP695 (pCMV-APP) (human) (UniProt P05067); test: pulldown of APP695 solubilized from transfected COS cells on immobilized Ig-F spondin, immunoblot
[3] = biological target: GST-CAPPD fusion protein (pGEX-CAPPD, APP695 residues 286-557) (human) (UniProt P05067); test: pulldown of secreted myc-F-spondin on immobilized GST-CAPPD, immunoblot
[4] = biological target: recombinant full-length APP695 (pCMV-APP) (human) (UniProt P05067); test: pulldown of APP695 on immobilized Ig-F spondin truncations

Binder | binding [4] | further results
B1 |  | binding [1]: binds; binding [2]: binds
B2 |  | binding [3]: binds
B3 | binds | 
B4 | binds | 
B5 | binds | 
